These are yes or no findings as the source states them, for the method shown. Binding seen in cells or lysates may run through a third protein. Some results given as binding are weak or reduced against the parent protein; the word gives no strength.
Columns and labels:
GATA3 (human) = GATA3 (human) (UniProt P23771); experiment: co-IP; reciprocal: GATA3 antibody on protein A magnetic beads, blot for AR; hormone-starved cells treated with vehicle or DHT for 4 h, cross-linked with 1% formaldehyde, lysed and sonicated; four breast cancer cell lines
[1] = target: androgen receptor (human (endogenous in ZR-75-1, T-47D, MDA-MB-453, MFM-223 cells and human breast tissue)) (UniProt P10275); experiment: proximity ligation; PLA with AR and GATA3 antibodies on fixed, permeabilised ZR-75-1, T-47D, MFM-223 and MDA-MB-453 cells; hormone-starved, then vehicle or 10 nM DHT for 4 h (also a time course, and enobosarm 10 or 100 nM in T-47D)
[2] = target: androgen receptor (human (endogenous in ZR-75-1, T-47D, MDA-MB-453, MFM-223 cells and human breast tissue)) (UniProt P10275); experiment: proximity ligation; PLA with AR and GATA3 antibodies on 4 uM sections of clinical breast tissues (ER+/AR+ and ER-/AR+ primary cancers, non-malignant reduction mammoplasties), citrate antigen retrieval pH 6.5
[3] = target: androgen receptor (human (endogenous in ZR-75-1, T-47D, MDA-MB-453, MFM-223 cells and human breast tissue)) (UniProt P10275); experiment: co-IP; AR antibody on protein A magnetic beads, blot for GATA3; hormone-starved cells treated with vehicle or DHT for 4 h, cross-linked with 1% formaldehyde, lysed and sonicated; four breast cancer cell lines

Chains of the proteins cited; added tags and fusions are not shown.
UniProt P23771: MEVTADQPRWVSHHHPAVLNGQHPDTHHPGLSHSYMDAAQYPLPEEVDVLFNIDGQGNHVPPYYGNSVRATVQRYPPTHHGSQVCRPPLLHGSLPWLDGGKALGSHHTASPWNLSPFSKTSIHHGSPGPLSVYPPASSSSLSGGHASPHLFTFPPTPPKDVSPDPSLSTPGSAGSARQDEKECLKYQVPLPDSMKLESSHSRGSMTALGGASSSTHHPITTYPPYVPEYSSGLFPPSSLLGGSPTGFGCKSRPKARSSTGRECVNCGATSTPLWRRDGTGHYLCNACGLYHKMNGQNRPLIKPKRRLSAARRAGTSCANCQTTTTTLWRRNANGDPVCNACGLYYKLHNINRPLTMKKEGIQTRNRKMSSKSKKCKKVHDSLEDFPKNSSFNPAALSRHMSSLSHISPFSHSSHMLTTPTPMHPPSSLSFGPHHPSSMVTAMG
UniProt P10275: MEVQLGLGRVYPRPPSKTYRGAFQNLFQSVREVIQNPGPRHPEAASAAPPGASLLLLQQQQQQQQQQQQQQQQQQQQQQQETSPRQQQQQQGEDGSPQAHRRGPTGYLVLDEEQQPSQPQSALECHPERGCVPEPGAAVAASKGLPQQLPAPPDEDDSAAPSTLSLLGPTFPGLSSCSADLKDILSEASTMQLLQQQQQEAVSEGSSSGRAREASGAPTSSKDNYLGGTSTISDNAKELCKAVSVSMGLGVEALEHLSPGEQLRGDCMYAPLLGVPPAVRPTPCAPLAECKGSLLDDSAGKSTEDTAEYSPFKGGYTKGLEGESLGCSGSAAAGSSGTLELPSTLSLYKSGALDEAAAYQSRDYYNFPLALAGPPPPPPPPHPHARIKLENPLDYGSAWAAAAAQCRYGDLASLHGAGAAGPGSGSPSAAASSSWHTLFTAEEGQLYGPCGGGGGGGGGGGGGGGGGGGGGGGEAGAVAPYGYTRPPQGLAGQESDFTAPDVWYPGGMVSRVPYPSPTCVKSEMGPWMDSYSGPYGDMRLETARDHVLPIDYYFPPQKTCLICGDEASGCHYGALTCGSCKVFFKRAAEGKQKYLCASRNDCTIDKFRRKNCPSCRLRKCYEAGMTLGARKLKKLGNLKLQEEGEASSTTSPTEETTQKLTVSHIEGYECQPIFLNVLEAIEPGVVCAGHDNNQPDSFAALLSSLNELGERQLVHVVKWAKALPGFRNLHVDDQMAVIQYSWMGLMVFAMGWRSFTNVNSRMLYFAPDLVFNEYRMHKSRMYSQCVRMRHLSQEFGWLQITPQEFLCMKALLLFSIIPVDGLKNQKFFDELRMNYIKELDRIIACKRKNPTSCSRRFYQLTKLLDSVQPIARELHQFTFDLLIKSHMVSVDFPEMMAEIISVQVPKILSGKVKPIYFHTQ

binding (GATA3 (human)) | binding [1] | binding [2] | binding [3] | Substance
binds | – | – | – | androgen receptor (from UniProt P10275 1-920)
– | binds | binds | binds | GATA3 (from UniProt P23771 1-443)
